In the supplement of paper PMC12823440, “Inhibitors supercharge kinase turnover through native proteolytic circuits” (Nature, 2025):
Counter-ions that a name gives are not always drawn. The list shows a part of the results. Hit calls seldom repeat between salt and free forms of one compound.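 In K562 cells expressing nanoluciferase-fused kinases, luminescence was recorded at 4 h intervals between 2 and 18 h, normalized as percent of control with DMSO at 100% and a positive control at 0%. A significant (2 sigma) signal drop marks a time point as decreased. The authors' rule for a hit is not shown and takes in more than the number of time points.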

By UniProt entry, the sequences of proteins in these tests, tags left out. Where a name states a change or a piece, a line headed by the entry shows the natural chain unless it says otherwise.
UniProt Q01974, whole entry: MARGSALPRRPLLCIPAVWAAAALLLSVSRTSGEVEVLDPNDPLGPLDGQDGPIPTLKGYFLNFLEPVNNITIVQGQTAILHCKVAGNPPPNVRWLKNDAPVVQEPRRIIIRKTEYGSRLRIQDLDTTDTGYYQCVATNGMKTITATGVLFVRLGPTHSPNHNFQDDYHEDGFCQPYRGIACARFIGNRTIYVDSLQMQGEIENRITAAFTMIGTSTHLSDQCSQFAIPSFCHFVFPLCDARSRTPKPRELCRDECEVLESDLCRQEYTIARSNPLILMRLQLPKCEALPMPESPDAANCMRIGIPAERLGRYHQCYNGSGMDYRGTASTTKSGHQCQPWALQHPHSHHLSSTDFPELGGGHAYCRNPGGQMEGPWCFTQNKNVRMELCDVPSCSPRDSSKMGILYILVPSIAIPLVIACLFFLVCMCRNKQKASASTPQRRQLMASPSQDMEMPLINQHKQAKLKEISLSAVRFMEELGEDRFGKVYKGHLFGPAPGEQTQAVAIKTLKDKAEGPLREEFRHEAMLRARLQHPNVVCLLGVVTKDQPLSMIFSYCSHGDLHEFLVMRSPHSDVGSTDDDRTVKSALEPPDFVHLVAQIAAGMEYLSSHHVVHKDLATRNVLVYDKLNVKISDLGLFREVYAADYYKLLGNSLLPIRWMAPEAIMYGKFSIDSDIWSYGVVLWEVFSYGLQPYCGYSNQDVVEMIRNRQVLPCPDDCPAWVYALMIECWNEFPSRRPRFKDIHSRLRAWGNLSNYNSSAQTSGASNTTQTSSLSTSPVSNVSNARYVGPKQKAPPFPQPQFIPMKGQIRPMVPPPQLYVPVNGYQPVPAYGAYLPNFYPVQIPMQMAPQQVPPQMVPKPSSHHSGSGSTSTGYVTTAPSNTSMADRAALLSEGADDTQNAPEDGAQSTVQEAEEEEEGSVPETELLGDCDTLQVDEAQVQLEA
UniProt Q15418, whole entry: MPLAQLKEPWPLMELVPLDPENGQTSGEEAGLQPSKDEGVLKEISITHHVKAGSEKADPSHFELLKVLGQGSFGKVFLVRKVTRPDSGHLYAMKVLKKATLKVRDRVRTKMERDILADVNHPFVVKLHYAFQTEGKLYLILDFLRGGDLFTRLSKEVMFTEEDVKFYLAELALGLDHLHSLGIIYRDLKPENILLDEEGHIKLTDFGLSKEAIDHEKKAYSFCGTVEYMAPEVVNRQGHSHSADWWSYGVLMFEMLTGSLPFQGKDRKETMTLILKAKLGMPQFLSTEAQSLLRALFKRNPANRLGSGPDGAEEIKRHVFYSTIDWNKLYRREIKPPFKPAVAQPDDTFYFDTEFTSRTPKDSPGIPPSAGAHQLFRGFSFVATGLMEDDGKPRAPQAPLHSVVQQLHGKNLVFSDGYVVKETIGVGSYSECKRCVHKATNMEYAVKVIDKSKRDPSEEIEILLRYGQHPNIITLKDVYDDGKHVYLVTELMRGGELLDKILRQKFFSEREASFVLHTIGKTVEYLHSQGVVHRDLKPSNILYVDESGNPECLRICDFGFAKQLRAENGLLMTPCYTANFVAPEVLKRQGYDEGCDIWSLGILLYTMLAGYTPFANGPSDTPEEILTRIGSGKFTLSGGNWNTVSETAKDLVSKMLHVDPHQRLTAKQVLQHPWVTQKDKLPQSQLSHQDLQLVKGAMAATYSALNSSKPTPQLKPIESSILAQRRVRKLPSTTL
UniProt Q9NYA1, whole entry: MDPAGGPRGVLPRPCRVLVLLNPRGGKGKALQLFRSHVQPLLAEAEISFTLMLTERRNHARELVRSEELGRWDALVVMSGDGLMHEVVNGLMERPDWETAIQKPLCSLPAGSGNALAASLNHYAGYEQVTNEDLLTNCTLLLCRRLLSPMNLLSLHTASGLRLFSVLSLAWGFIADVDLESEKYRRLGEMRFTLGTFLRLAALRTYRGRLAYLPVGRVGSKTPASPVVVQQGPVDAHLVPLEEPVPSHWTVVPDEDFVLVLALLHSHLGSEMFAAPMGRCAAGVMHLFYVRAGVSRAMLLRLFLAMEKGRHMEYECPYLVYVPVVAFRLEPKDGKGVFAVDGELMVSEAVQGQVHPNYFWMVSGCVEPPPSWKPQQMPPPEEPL
UniProt Q9Y6E0: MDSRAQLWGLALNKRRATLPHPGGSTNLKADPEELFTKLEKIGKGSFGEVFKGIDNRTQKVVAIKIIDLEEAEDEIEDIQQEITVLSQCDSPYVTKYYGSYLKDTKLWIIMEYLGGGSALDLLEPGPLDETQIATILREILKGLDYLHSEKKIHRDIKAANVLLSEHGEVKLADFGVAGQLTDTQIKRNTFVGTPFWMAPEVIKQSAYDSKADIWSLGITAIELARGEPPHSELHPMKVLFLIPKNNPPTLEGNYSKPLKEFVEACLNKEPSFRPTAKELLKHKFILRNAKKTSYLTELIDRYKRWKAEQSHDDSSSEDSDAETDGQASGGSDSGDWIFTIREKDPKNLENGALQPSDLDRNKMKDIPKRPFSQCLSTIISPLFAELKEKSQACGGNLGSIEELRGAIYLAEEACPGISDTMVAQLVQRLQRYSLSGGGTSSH
UniProt Q15208: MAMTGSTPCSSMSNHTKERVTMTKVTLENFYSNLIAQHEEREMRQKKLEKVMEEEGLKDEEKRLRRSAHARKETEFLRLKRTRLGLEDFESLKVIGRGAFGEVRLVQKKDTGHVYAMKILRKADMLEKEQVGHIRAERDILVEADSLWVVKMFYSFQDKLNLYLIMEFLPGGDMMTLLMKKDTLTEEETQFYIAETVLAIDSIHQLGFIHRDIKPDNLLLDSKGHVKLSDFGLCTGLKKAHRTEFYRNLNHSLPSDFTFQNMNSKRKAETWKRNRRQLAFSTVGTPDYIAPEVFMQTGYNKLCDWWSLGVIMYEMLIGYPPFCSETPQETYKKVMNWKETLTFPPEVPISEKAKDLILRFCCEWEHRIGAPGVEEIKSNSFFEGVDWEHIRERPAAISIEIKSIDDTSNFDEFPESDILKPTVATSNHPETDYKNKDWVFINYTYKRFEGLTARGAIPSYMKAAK
UniProt P42680: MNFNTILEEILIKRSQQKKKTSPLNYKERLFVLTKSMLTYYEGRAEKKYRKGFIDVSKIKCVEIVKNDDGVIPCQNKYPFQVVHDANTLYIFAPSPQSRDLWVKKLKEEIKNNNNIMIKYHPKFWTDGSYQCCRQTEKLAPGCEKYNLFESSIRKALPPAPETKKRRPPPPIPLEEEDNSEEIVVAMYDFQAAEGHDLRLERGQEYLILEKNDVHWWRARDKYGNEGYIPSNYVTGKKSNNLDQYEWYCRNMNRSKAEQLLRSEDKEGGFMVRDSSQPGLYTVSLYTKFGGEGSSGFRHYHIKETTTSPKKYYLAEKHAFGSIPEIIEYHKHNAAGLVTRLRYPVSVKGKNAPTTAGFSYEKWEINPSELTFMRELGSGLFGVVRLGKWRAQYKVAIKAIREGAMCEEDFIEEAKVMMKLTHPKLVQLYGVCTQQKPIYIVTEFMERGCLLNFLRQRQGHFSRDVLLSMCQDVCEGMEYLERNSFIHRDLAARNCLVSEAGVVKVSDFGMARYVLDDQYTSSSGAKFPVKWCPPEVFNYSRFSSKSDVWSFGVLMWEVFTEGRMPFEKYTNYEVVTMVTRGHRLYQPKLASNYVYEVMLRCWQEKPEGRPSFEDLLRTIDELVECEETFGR
UniProt Q6PHR2: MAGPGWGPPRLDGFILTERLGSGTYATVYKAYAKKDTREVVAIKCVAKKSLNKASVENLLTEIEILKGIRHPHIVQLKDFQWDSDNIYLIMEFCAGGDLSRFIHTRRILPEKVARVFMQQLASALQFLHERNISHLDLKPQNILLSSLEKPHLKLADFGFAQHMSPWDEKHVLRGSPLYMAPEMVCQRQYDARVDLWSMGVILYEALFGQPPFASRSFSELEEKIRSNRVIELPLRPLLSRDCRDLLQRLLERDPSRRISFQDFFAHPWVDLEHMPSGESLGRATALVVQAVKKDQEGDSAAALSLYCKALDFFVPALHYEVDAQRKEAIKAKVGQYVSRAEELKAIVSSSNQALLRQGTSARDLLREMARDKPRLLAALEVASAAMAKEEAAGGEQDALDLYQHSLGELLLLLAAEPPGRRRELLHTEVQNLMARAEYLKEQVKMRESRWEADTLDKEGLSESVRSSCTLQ
UniProt P07947, whole entry, looked up: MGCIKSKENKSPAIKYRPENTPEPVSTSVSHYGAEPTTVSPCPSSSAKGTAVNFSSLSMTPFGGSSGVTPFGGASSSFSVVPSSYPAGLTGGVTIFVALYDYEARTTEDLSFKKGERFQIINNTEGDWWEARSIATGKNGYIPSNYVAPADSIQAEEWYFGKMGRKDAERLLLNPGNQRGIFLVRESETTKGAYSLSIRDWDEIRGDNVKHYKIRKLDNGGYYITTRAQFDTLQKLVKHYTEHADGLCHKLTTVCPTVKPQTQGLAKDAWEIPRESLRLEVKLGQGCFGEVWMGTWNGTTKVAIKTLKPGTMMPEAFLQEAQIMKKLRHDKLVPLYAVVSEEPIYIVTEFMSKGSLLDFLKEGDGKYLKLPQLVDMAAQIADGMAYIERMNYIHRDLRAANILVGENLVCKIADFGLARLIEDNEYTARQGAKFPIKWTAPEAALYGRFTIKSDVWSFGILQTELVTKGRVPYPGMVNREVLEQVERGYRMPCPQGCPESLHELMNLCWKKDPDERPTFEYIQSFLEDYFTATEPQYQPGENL
UniProt P43403: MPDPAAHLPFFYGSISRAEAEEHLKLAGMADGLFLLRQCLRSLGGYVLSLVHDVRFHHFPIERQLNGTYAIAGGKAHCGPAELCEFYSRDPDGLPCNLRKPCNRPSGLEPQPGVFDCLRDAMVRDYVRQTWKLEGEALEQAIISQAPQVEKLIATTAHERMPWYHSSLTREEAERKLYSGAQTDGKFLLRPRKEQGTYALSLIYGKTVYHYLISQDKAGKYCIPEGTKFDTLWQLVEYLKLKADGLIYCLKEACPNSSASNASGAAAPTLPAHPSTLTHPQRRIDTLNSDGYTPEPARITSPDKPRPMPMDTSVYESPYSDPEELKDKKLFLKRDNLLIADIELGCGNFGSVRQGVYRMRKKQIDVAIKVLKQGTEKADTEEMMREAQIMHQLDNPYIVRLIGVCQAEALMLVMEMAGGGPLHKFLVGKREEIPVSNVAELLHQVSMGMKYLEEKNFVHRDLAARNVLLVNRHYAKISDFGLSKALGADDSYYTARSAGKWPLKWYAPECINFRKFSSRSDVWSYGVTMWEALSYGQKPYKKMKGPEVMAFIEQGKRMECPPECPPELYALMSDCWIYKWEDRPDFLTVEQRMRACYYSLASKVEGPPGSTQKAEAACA
UniProt P11802: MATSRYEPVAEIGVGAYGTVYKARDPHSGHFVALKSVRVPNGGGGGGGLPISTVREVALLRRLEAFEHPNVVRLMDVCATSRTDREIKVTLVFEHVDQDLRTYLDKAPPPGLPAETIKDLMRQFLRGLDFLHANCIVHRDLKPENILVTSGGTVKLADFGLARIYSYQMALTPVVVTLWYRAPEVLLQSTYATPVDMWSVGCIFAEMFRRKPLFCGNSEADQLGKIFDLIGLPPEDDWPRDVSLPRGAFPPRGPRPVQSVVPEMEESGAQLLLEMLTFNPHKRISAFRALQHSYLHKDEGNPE
UniProt P50613: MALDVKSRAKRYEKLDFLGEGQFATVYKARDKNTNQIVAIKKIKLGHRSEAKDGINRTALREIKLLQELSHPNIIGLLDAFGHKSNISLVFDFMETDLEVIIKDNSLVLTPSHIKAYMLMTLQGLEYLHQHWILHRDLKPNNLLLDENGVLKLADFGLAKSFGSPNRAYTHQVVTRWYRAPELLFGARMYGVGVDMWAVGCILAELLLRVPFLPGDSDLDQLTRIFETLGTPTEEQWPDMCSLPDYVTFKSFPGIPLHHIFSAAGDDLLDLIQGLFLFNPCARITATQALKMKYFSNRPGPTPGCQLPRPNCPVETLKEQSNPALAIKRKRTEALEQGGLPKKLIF
UniProt P50750, whole entry: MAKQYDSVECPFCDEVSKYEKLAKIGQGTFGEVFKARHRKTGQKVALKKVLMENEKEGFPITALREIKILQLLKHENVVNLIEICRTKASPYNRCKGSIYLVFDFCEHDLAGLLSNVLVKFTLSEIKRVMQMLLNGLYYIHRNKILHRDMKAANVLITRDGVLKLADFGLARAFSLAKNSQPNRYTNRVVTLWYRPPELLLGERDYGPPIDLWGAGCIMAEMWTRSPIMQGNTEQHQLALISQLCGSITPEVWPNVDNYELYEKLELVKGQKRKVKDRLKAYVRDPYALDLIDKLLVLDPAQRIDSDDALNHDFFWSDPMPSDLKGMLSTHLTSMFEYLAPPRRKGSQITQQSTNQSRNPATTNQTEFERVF

What was measured:
Conditions in all cases: K562; 2-18 h
ROR2 = ROR2 (UniProt Q01974); experiment: number of time points (of 5) at which kinase-Nluc abundance scored as decreased, DMSO-normalised (count); higher = more persistent destabilization
RPS6KA1 = RPS6KA1 (UniProt Q15418); experiment: as above
SPHK1 = SPHK1 (UniProt Q9NYA1); experiment: as above
SRC = SRC (UniProt P12931); experiment: as above
STK24 = STK24 (UniProt Q9Y6E0); experiment: as above
STK38 = STK38 (UniProt Q15208); experiment: as above
SYK = SYK (UniProt P43405); experiment: as above
TEC = TEC (UniProt P42680); experiment: as above
TYK2 = TYK2 (UniProt P29597); experiment: as above
ULK3 = ULK3 (UniProt Q6PHR2); experiment: as above
YES1 = YES1 (UniProt P07947); experiment: as above
ZAK = ZAK (UniProt Q9NYL2); experiment: as above
ZAP70 = ZAP70 (UniProt P43403); experiment: as above
CDK4 = CDK4 (UniProt P11802); experiment: number of time points (of 4; 2 h point missing) at which kinase-Nluc abundance scored as decreased, DMSO-normalised (count); higher = more persistent destabilization
CDK7 = CDK7 (UniProt P50613); experiment: as above
CDK9 = CDK9 (UniProt P50750); experiment: as above

| SMILES | number of time points (ROR2) | number of time points (RPS6KA1) | number of time points (SPHK1) | number of time points (SRC) | number of time points (STK24) | number of time points (STK38) | number of time points (SYK) | number of time points (TEC) | number of time points (TYK2) | number of time points (ULK3) | number of time points (YES1) | number of time points (ZAK) | number of time points (ZAP70) | number of time points (CDK4) | number of time points (CDK7) | number of time points (CDK9) |
| --- | --- | --- | --- | --- | --- | --- | --- | --- | --- | --- | --- | --- | --- | --- | --- | --- |
| c1ccc(Cn2c(-c3ccc(OC[C@H](C4CCNCC4)n4c(-c5ccccc5)nc5ccccc54)cc3)nc3ccccc32)cc1 [Deltarasin] (2.5 µM) | 0 | 0 | 0 | 0 | 0 | 0 | 0 | 0 | 0 | 0 | 0 | 0 | 0 | 0 | 0 | 0 |
| O=C(O)[C@H]1O[C@@H](Oc2cc3oc(-c4ccc(O)cc4)cc(=O)c3c(O)c2O)[C@H](O)[C@@H](O)[C@@H]1O [Scutellarin] (10 µM) | 0 | 0 | 0 | 0 | 0 | 0 | 0 | 0 | 0 | 0 | 0 | 0 | 0 | 0 | 0 | 0 |
| C=CC(=O)Nc1cc(Nc2nccc(-c3cn(C)c4ccccc34)n2)c(OC)cc1N(C)CCNC [AZ7550 Mesylate] (2.5 µM) | 0 | 0 | 0 | 0 | 0 | 0 | 0 | 0 | 0 | 2 | 0 | 0 | 0 | 0 | 1 | 0 |
| O=C(O)c1ccc(/C=C/S(=O)(=O)Cc2ccc(Cl)cc2)cc1 [Recilisib] (10 µM) | 0 | 0 | 0 | 0 | 0 | 0 | 0 | 0 | 0 | 0 | 0 | 0 | 0 | 0 | 0 | 0 |
| COc1cc2c(cc1O)C[C@H]1c3cc(O)c(OC)cc3CC[N@@+]1(C)C2 [Phellodendrine] (10 µM) | 0 | 0 | 0 | 0 | 0 | 0 | 0 | 0 | 0 | 0 | 0 | 0 | 0 | 0 | 0 | 0 |
| COc1cc(-c2oc3cc(O)cc(O)c3c(=O)c2O)ccc1O [Isorhamnetin] (10 µM) | 0 | 0 | 0 | 0 | 0 | 0 | 0 | 0 | 0 | 1 | 0 | 0 | 0 | 0 | 0 | 0 |
| C[C@H]1O[C@@H](O[C@H]2CC[C@@]3(C)[C@@H](CC[C@]4(C)[C@@H]3C=C[C@]35OC[C@@]6(CCC(C)(C)C[C@H]63)[C@H](O)C[C@]54C)[C@]2(C)CO)[C@H](O)[C@@H](O[C@@H]2O[C@H](CO)[C@@H](O)[C@H](O)[C@H]2O)[C@H]1O [Saikosaponin D] (2.5 µM) | 0 | 0 | 0 | 0 | 0 | 0 | 0 | 0 | 3 | 0 | 0 | 0 | 0 | 0 | 0 | 0 |
| O=Nc1c(-c2c(O)[nH]c3cc(Br)ccc23)[nH]c2ccccc12 [GSK 3 Inhibitor IX] (2.5 µM) | 0 | 0 | 0 | 0 | 0 | 0 | 0 | 0 | 0 | 0 | 0 | 0 | 0 | 0 | 0 | 0 |
| COC(=O)[C@H](CCSC)NC(=O)c1ccc(NC[C@@H](N)CS)cc1-c1ccccc1 [FTI-277 (hydrochloride)] (10 µM) | 0 | 0 | 0 | 0 | 0 | 0 | 0 | 0 | 0 | 1 | 0 | 0 | 0 | 0 | 0 | 0 |
| CCc1c[nH]c2ncnc(N3CC[C@](N)(CNC(=O)c4ccc(F)cc4F)C3)c12 (10 µM) | 0 | 0 | 0 | 0 | 0 | 0 | 0 | 0 | 0 | 0 | 0 | 0 | 0 | 0 | 0 | 0 |
| Nc1[nH]nc2nc(-c3ccc(NS(=O)(=O)c4cc(Cl)ccc4Cl)cc3)cnc12 (10 µM) | 0 | 0 | 0 | 0 | 0 | 0 | 0 | 0 | 0 | 0 | 0 | 0 | 0 | 0 | 0 | 0 |
| Cc1cc(C)cc(NC(N)=Nc2ccccc2C(F)(F)F)c1 (10 µM) | 0 | 0 | 0 | 0 | 0 | 0 | 0 | 0 | 0 | 0 | 0 | 0 | 0 | 0 | 0 | 0 |
| O=C(NCCO)c1cc(C(=O)NCCO)cc(C(=O)NCCO)c1 (10 µM) | 0 | 0 | 0 | 0 | 0 | 0 | 0 | 0 | 0 | 0 | 0 | 0 | 0 | 0 | 0 | 0 |

Molecules above containing fluorine:

| SMILES | number of time points (ROR2) | number of time points (RPS6KA1) | number of time points (SPHK1) | number of time points (SRC) | number of time points (STK24) | number of time points (STK38) | number of time points (SYK) | number of time points (TEC) | number of time points (TYK2) | number of time points (ULK3) | number of time points (YES1) | number of time points (ZAK) | number of time points (ZAP70) | number of time points (CDK4) | number of time points (CDK7) | number of time points (CDK9) |
| --- | --- | --- | --- | --- | --- | --- | --- | --- | --- | --- | --- | --- | --- | --- | --- | --- |
| CCc1c[nH]c2ncnc(N3CC[C@](N)(CNC(=O)c4ccc(F)cc4F)C3)c12 (10 µM) | 0 | 0 | 0 | 0 | 0 | 0 | 0 | 0 | 0 | 0 | 0 | 0 | 0 | 0 | 0 | 0 |
| Cc1cc(C)cc(NC(N)=Nc2ccccc2C(F)(F)F)c1 (10 µM) | 0 | 0 | 0 | 0 | 0 | 0 | 0 | 0 | 0 | 0 | 0 | 0 | 0 | 0 | 0 | 0 |
